# In US20160046678A1 (ZYNGENIA, published 2016):
# Results are given in words; binding and its absence hold for the method and conditions named. Some binding calls cover weakened binding; strength is not graded here.
# T1: Angiopoietin-2 (Ang2) (human, UniProt O15123 19-496, biotin label in Examples 22-24)
# T1 construct: also called rhAng2; recombinant Ang2
# T1 sequence (looked up): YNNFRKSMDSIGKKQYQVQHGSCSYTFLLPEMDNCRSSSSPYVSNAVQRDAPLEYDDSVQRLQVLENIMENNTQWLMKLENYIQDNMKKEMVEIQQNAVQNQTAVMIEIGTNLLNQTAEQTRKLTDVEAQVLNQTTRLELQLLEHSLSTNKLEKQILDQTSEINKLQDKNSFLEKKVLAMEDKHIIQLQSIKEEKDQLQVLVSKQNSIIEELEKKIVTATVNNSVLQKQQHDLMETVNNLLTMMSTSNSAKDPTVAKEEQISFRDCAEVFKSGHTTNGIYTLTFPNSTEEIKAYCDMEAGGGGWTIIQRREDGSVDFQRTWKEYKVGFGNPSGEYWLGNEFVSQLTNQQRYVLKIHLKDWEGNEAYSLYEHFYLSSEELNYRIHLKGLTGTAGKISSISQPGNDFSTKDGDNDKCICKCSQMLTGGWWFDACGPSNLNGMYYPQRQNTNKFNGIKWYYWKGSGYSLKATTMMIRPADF
# Target: T1, Angiopoietin-2 (Ang2)
# Experiment: Example 48, method not detailed
row,Binder,binding
1,SMSVYIDCFSYPNPPRCY [ANG840],binds
2,GSRDCYFYPNPKYCYIQD [ANG853],binds
3,YSTDCYFYPNPPHCYGPH [ANG812],binds
4,YGTDCYFFPNPRNCYKIN [ANG811],binds
5,VEEACYFYPNPPHCYEAV [ANG829],binds
6,PLNACYFYPNPPHCYFLK [ANG845],binds
7,PPLDCYFYPNPPNCYLGQ [ANG809],binds
8,FNSTLFDCFFYPNPMHCY [ANG817],binds
9,VSLYYSACYFYPNPPWCN [ANG822],binds
10,MGISFLDCYFFPNPQHCY [ANG837],binds
11,VDIDCYFYPNPPNCYNKA [ANG804],binds
12,LQLECYYYPNPTHCYETR [ANG836],binds
13,PSPYYSDCAWYPNPPYCY [ANG838],binds
14,SVLDCYFYPNPAHCYENV [ANG823],binds
15,YVGHMLDCYFYPNPPHCY [ANG814],binds
16,SYVDTTDCYFYPNPQHCY [ANG808],binds
17,TWGVCYFYPNPPHCYEQL [ANG827],binds
18,YYYSYTHCYYYPNPTHCY [ANG834],binds
19,TPSDCFFYPNPPHCYLMN [ANG826],binds
20,QQADHIDCYFYPNPPYCY [ANG801],binds
21,ECYFYPNPAHCYTGTNKE [ANG806],binds
22,DCYFYPNPTHCYLKGGFV [ANG841],binds

row,Binder,binding
1,SDSFLRDCYFYPNPPHCY [ANG854],binds
2,PSADLLDCYFFPNPPHCS [ANG800],binds
3,STHDCFLYPNPPHCYWPQ [ANG802],binds
4,DHSACYAFPNPSSCYNSR [ANG844],binds
5,PFSVITECYFYPNPPHCY [ANG799],binds
6,QGTHMLDCYFYPNPPNCY [ANG825],binds
7,SMYDCLYFPNPPHCYIQN [ANG815],binds
8,WINDCYFYPNPSHCFVGD [ANG810],binds
9,LPHPHLDCYFYPNPAFCY [ANG807],binds
10,AGHECYFYPNPPHCYSEQ [ANG849],binds
11,FTQPMVDCYFYPNPPHCY [ANG816],binds
12,PPPSSYECYFYPNPAHCY [ANG847],binds
13,SHTDCYYYPNPPHCYLEN [ANG848],binds
14,VSTDCYFYPNPPHCYSVL [ANG824],binds
15,VASWKYDCYFYPNPLHCY [ANG803],binds
16,MTWFPNDCYFYPNPPYCY [ANG835],binds
17,RSLPIYECYFYPNPPHCY [ANG820],binds
18,LLDRFLDCYFYPNPSHCS [ANG805],binds
19,AGMNDFDCYFFPNPPHCF [ANG850],binds
20,LLSVMQDCYFYPNPSHCY [ANG846],binds
21,PFSSFFDCYFYPNPHHCY [ANG813],binds
22,DDSDCFFYPNPPRCYETY [ANG832],binds

# More lines, now with the values ahead:
row,binding,Binder
1,binds,YVMGGDDCYFYPNPPECY [ANG861]
2,binds,SNVDCYFYPNPPNCFVHD [ANG879]
3,binds,LDSECFFYPNPPHCYNTL [ANG872]
4,binds,LTIEHQDCYFYPNPPHCY [ANG858]
5,binds,PNQSNYDCYFYPNPPHCY [ANG882]
6,binds,IGYPFSDCYFYPNPPHCY [ANG874]
7,binds,PSLYELDCYFYPNPPHCY [ANG856]
8,binds,GNIACYFYPNPPHCYNVH [ANG862]
9,binds,NERDCYFYPNPPHCYQNG [ANG871]
10,binds,SPPVFWECYFYPNPTHCY [ANG881]
11,binds,YPGPFTGCYFYPNPLQCY [ANG869]
12,binds,AAVECLFYPNPPHCYERA [ANG877]
13,binds,LGLRHYACYLYPNPPHCY [ANG866]
14,binds,VLSFFQDCYFYPNPANCY [ANG880]
15,binds,AWKDCFFYPNPSFCSYSS [ANG855]
16,binds,YLHSFEDCYFYPNPAHCY [ANG857]
17,binds,PYLDCAEYPNPLYCYESE [ANG873]
18,binds,WNFDCYFYPNPPLCYNME [ANG875]
19,binds,ARSSQFECYFYPNPPHCY [ANG867]
20,binds,SGMECYFFPNPPHCYDLK [ANG863]
